Measured values from PubChem BioAssay AID590 (National Center for Advancing Translational Sciences (NCATS), 2007).
The campaign covered roughly 59,000 compounds. About 6,500 (11%) were called active. The shares of active, inactive and inconclusive entries below differ from those in the screen. Rule as the data show it: active = max dye-equivalent concentration above about 10 nM; inconclusive = mostly about 1.1 nM to 9.6 nM; inactive = weaker than that.

Experiment: qHTS Assay for Spectroscopic Profiling in A350 Spectral Region
Details: Compound autofluorescence, 340/450 nm, Alexa 350 dye-equivalents; active compounds read high
For CCOC(=O)c1ccc2c(c1)nc(SCC(=O)c1ccco1)n2CC, the max dye-equivalent concentration was “inactive”.
In the case of Cc1ccc(C2(C)NC(=O)N(CC(=O)NC(=O)NC3CCCC3)C2=O)cc1 (stereo not drawn), the max dye-equivalent concentration is reported as inconclusive: 1.1 nM.
With CCOC(=O)C1CCN(S(=O)(=O)c2cccc(-c3cn4ccccc4n3)c2)CC1 the max dye-equivalent concentration was inconclusive: 4.3 nM.
With COCCCNC(CC(=O)Nc1ccc(N(C)C)cc1)C(=O)O (stereo not drawn) the max dye-equivalent concentration was inconclusive: 1.4 nM.
With CC(c1ccccc1)n1cc(C(=O)NCc2cccnc2)nn1 (stereo not drawn) the max dye-equivalent concentration was “inactive”.
With COC(=O)C1CCN(C(=O)CSc2nnc(-c3ccncc3)o2)CC1 the max dye-equivalent concentration was inconclusive: 1.5 nM.
With Cc1nc(NC(C)c2ccccc2)c2oc3ccccc3c2n1 (stereo not drawn) the max dye-equivalent concentration was inconclusive: 8.6 nM.
For N#C/C(=C(/O)CSc1nnc(Cc2cccs2)n1C1CCCCC1)c1nc2ccccc2[nH]1, the max dye-equivalent concentration was inconclusive: 8.7 nM.
For COc1ncc2nc(-c3cccc(C#N)c3)c(=O)n(CCC#N)c2n1, the max dye-equivalent concentration was inconclusive: 9.8 nM.
In the case of CCN(CC)c1nc(C#N)nc(N(CC)CC)n1, the max dye-equivalent concentration is reported as inconclusive: 3.1 nM.
With Nc1ncc(Br)cc1S(=O)(=O)NCCC(=O)N1CCN(c2ncccn2)CC1 the max dye-equivalent concentration was active: 20 nM.
For CCCn1c(C)nc2c(c1=O)c1nc3ccccc3nc1n2CCc1ccccc1, the max dye-equivalent concentration was active: 660 nM.
With NC(=O)CSc1nc2c(sc3ccccc32)c(=O)n1CCCN1CCOCC1 the max dye-equivalent concentration was inconclusive: 2.1 nM.
In the case of OC1C=CSc2nc3ccccc3n21 (stereo not drawn), the max dye-equivalent concentration is reported as inconclusive: 1.1 nM.
In the case of O=C(Cn1ncn2c(cc3ccccc32)c1=O)NCc1ccco1, the max dye-equivalent concentration is reported as “inactive”.
In the case of CCOC(=O)c1sc2nc(C)cc(C)c2c1NC(=O)c1ccco1, the max dye-equivalent concentration is reported as inconclusive: 6.3 nM.
In the case of O=S(=O)(Nc1ccc2c(c1)OCO2)c1ccc(Br)s1, the max dye-equivalent concentration is reported as “inactive”.
With CSc1nc2sc3c(c2c(=O)n1C)CCC(C)C3 (stereo not drawn) the max dye-equivalent concentration was inconclusive: 6.8 nM.
In the case of C=CCNc1oc(-c2ccc(OCC)cc2)nc1C#N, the max dye-equivalent concentration is reported as inconclusive: 8.1 nM.
In the case of Cc1cnc2cc(Cl)ccc2c1SCC(=O)O, the max dye-equivalent concentration is reported as “inactive”.
In the case of O=C(c1cc2c(s1)CCCCC2)N1CCN(c2ncccn2)CC1, the max dye-equivalent concentration is reported as “inactive”.
In the case of O=C(O)C1=CCNCC1, the max dye-equivalent concentration is reported as “inactive”.
For Cn1c(=O)c2[nH]c(CCS)nc2n(C)c1=O, the max dye-equivalent concentration was “inactive”.
For Cn1c(SCC(=O)OC2CCCCC2)nnc1-c1ccc(S(=O)(=O)N2CCCC2)cc1, the max dye-equivalent concentration was “inactive”.
In the case of O=c1c2c([nH]c3ccccc13)CCCCCC2, the max dye-equivalent concentration is reported as inconclusive: 3.2 nM.
With O=C(Nc1cccc2nsnc12)c1cccs1 the max dye-equivalent concentration was inconclusive: 5.4 nM.
With Cc1onc(-c2ccccc2Cl)c1C(=O)Nc1cccc2nsnc12 the max dye-equivalent concentration was active: 450 nM.
For Cc1cc(NC(=O)CCC(=O)N(c2cccnc2)C(C(=O)NC2CCCC2)c2ccccc2F)no1 (stereo not drawn), the max dye-equivalent concentration was “inactive”.
